Values as published with doi:10.1371/journal.pone.0140310, rounded.

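Human melanoma cells were exposed to two drugs together for 72 h in 1,536-well plates and read by automated microscopy after fixing and staining. Values are the share of nuclei positive for cleaved PARP as a percentage of the same share in the DMSO control: 100 is the control level, higher means more apoptosis. Concentrations were fixed for each drug; these are the higher of two levels. The file gives one value for each pair and line, without errors, so small differences may be noise. Basal and induced levels differ widely between cell lines.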 An unselected part of the screen is shown.

Drug key:
fludarabine: Nc1nc(F)nc2c1ncn2[C@@H]1O[C@H](CO)[C@@H](O)[C@@H]1O at 1 µM
PF-562271: CN(c1ncccc1CNc1nc(Nc2ccc3c(c2)CC(=O)N3)ncc1C(F)(F)F)S(C)(=O)=O at 0.4 µM
ruxolitinib: N#CC[C@H](C1CCCC1)n1cc(-c2ncnc3[nH]ccc23)cn1 at 5 µM
tanespimycin: C=CCNC1=C2C[C@@H](C)C[C@H](OC)[C@H](O)[C@@H](C)/C=C(\C)[C@H](OC(N)=O)[C@@H](OC)/C=C\C=C(/C)C(=O)NC(=CC1=O)C2=O at 0.01 µM
BI-78D3: O=c1[nH]nc(Sc2ncc([N+](=O)[O-])s2)n1-c1ccc2c(c1)OCCO2 at 1 µM
GW441756: Cn1cc(/C=C2\C(=O)Nc3cccnc32)c2ccccc21 at 2 µM
GW9662: O=C(Nc1ccccc1)c1cc([N+](=O)[O-])ccc1Cl at 10 µM
etoposide: COc1cc([C@@H]2c3cc4c(cc3[C@@H](O[C@@H]3O[C@@H]5CO[C@@H](C)O[C@H]5[C@H](O)[C@H]3O)[C@H]3COC(=O)[C@H]23)OCO4)cc(OC)c1O at 0.1 µM

{"drugs": "PF-562271 and fludarabine", "SK-MEL-2": 2470, "COLO 792": 167, "IST-MEL1": 182, "SK-MEL-28": 7010}
{"drugs": "PF-562271 and GW441756", "SK-MEL-2": 59.6, "COLO 792": 145, "IST-MEL1": 49.7, "SK-MEL-28": 63.8}
{"drugs": "ruxolitinib and GW441756", "SK-MEL-2": 63.1, "COLO 792": 81.6, "IST-MEL1": 223, "SK-MEL-28": 77.0}
{"drugs": "BI-78D3 and PF-562271", "SK-MEL-2": 103, "COLO 792": 160, "IST-MEL1": 62.3, "SK-MEL-28": 58.4}
{"drugs": "BI-78D3 and fludarabine", "SK-MEL-2": 1970, "COLO 792": 110, "IST-MEL1": 89.4, "SK-MEL-28": 826}
{"drugs": "BI-78D3 and ruxolitinib", "SK-MEL-2": 99.8, "COLO 792": 263, "IST-MEL1": 164, "SK-MEL-28": 127}
{"drugs": "GW441756 and tanespimycin", "SK-MEL-2": 67.8, "COLO 792": 34.7, "IST-MEL1": 65.1, "SK-MEL-28": 154}
{"drugs": "GW441756 and BI-78D3", "SK-MEL-2": 10.5, "COLO 792": 46.0, "IST-MEL1": 111, "SK-MEL-28": 65.2}
{"drugs": "tanespimycin and PF-562271", "SK-MEL-2": 358, "COLO 792": 174, "IST-MEL1": 137, "SK-MEL-28": 131}
{"drugs": "tanespimycin and fludarabine", "SK-MEL-2": 1710, "COLO 792": 162, "IST-MEL1": 84.6, "SK-MEL-28": 4650}
{"drugs": "tanespimycin and GW9662", "SK-MEL-2": 119, "COLO 792": 50.3, "IST-MEL1": 222, "SK-MEL-28": 213}
{"drugs": "ruxolitinib and PF-562271", "SK-MEL-2": 121, "COLO 792": 261, "IST-MEL1": 91.1, "SK-MEL-28": 89.5}
{"drugs": "GW9662 and PF-562271", "SK-MEL-2": 84.4, "COLO 792": 59.5, "IST-MEL1": 22.9, "SK-MEL-28": 139}
{"drugs": "etoposide and ruxolitinib", "SK-MEL-2": 352, "COLO 792": 162, "IST-MEL1": 81.5, "SK-MEL-28": 65.5}
{"drugs": "fludarabine and etoposide", "SK-MEL-2": 1100, "COLO 792": 156, "IST-MEL1": 194, "SK-MEL-28": 595}
{"drugs": "GW9662 and ruxolitinib", "SK-MEL-2": 101, "COLO 792": 84.0, "IST-MEL1": 58.2, "SK-MEL-28": 164}
{"drugs": "GW9662 and BI-78D3", "SK-MEL-2": 194, "COLO 792": 39.2, "IST-MEL1": 99.3, "SK-MEL-28": 327}
{"drugs": "tanespimycin and ruxolitinib", "SK-MEL-2": 87.2, "COLO 792": 257, "IST-MEL1": 99.3, "SK-MEL-28": 74.8}
{"drugs": "GW9662 and etoposide", "SK-MEL-2": 431, "COLO 792": 110, "IST-MEL1": 88.0, "SK-MEL-28": 363}
{"drugs": "etoposide and PF-562271", "SK-MEL-2": 308, "COLO 792": 73.6, "IST-MEL1": 134, "SK-MEL-28": 169}
{"drugs": "tanespimycin and etoposide", "SK-MEL-2": 170, "COLO 792": 69.7, "IST-MEL1": 136, "SK-MEL-28": 78.4}
{"drugs": "GW441756 and fludarabine", "SK-MEL-2": 846, "COLO 792": 42.3, "IST-MEL1": 160, "SK-MEL-28": 3670}

The last 2 entries again:

| Drugs | SK-MEL-2 | COLO 792 | IST-MEL1 | SK-MEL-28 |
|---|---|---|---|---|
| tanespimycin and etoposide | 170 | 69.7 | 136 | 78.4 |
| GW441756 and fludarabine | 846 | 42.3 | 160 | 3670 |